Reference: PubChem BioAssay AID180 (DTP/NCI, 2004)
The list does not hold the whole screen: it is rich in T/C values a quarter to a half above the control, in often repeated tests (any T/C) and in doses without a T/C. Other doses and runs of a compound stand elsewhere. T/C gives the treated animals as a percentage of the vehicle group. Schedule codes are those of the source, taken here to give the interval after Q, in days (D) or hours (H), and the number of doses after X. Some T/C values are followed by the survivors on the day toxicity was checked, most often the fifth; where none is given, no animal had died by that day. Some entries hold several experiments; the values are given in rising order. Some entries give survivors of the animals treated and no T/C: the source files T/C as zero there, which appears to mark a toxic dose or a test without result, not a measured value. Survivors were counted at the toxicity check, usually on the fifth day, unless a day is given; later deaths do not show. Some schedules carry Z or #; the key to these is not given.

Test system: BDF1 mice, Adenocarcinoma 755 s.c., tumor weight T/C
Experiment: NCI In Vivo Anticancer Drug Screen. Data for tumor model Adenocarcinoma 755 (subcutaneous) in B6D2F1 (BDF1) mice
Details: T/C endpoint: mean tumor weight, higher T/C = larger tumour; for T/C: evaluated on day 12
How it was run: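 Readout: T/C, i.e. treated-group measurement over vehicle-control measurement. Endpoint is survival or tumor size in tumor-bearing mice given compound.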

[1] = dose: 250.0 mg/kg/injection, schedule: Q01DX011 (ip), vehicle: methylcellulose (MC)
[2] = dose: 225.0 mg/kg/injection, schedule: Q01DX011 (ip), vehicle: methylcellulose (MC)
[3] = dose: 12.0 mg/kg/injection, schedule: Q01DX011 (ip), vehicle: methylcellulose (MC)
[4] = dose: 18.0 mg/kg/injection, schedule: Q01DX011 (ip), vehicle: methylcellulose (MC)
[5] = dose: 150.0 mg/kg/injection, schedule: Q01DX011 (ip), vehicle: carboxymethylcellulose (CMC)

## Nc1c(Br)cc2c(c1Br)Cc1cc([N+](=O)[O-])ccc1-2
dose: 12.0 mg/kg/injection, schedule: Q01DX011 (ip), vehicle: other
  T/C: 126 % of control
dose: 225.0 mg/kg/injection, schedule: Q01DX011 (ip), vehicle: saline
  survivor count: 4 of 10
dose: 400.0 mg/kg/injection, schedule: Q01DX011 (ip), vehicle: carboxymethylcellulose (CMC)
  survivor count: 3 of 10
dose: 450.0 mg/kg/injection, schedule: Q01DX011 (ip), vehicle: saline
  survivor count: 1 of 10
dose: 900.0 mg/kg/injection, schedule: Q01DX011 (ip), vehicle: saline
  survivor count: 0 of 10

## O=C(Nc1ccc(NC(=O)Nc2cccc(C3=NCCN3)c2)cc1)Nc1cccc(C2=NCCN2)c1
dose: 187.5 mg/kg/injection, schedule: Q01DX011 (ip), vehicle: carboxymethylcellulose (CMC)
  survivor count: 2 of 10
dose: 375.0 mg/kg/injection, schedule: Q01DX011 (ip), vehicle: carboxymethylcellulose (CMC)
  survivor count: 3 of 10
dose: 750.0 mg/kg/injection, schedule: Q01DX011 (ip), vehicle: carboxymethylcellulose (CMC)
  survivor count: 0 of 10
dose: 1500.0 mg/kg/injection, schedule: Q01DX011 (ip), vehicle: carboxymethylcellulose (CMC)
  survivor count: 0 of 10
dose: 3000.0 mg/kg/injection, schedule: Q01DX011 (ip), vehicle: carboxymethylcellulose (CMC)
  survivor count: 2 of 10

## Nc1nc(Nc2ccccc2Cl)cc(=O)[nH]1
dose: 31.0 mg/kg/injection, schedule: Q01DX011 (ip), vehicle: methylcellulose (MC)
  T/C: 127 % of control [9 of 10 alive]
dose: 125.0 mg/kg/injection, schedule: Q01DX011 (ip), vehicle: methylcellulose (MC)
  T/C: 147 % of control [8 of 10 alive]
[1]
  survivor count: 4 of 10

## CC(C)n1cnc2c(Cl)ncnc21
dose: 250.0 mg/kg/injection, schedule: Q01DX011 (ip), vehicle: carboxymethylcellulose (CMC)
  survivor count: 4 of 10

## CSc1ncnc2nc[nH]c12
dose: 1.0 mg/kg/injection, schedule: Q01DX011 (oral), vehicle: carboxymethylcellulose (CMC)
  survivor count: 5 of 10
dose: 15.0 mg/kg/injection, schedule: Q01DX011 (oral), vehicle: carboxymethylcellulose (CMC)
  survivor count: 4 of 10
dose: 25.0 mg/kg/injection, schedule: Q01DX011 (oral), vehicle: carboxymethylcellulose (CMC)
  survivor count: 6 of 10
dose: 100.0 mg/kg/injection, schedule: Q#A X022 (ip), vehicle: carboxymethylcellulose (CMC)
  survivor count: 4 of 10
dose: 300.0 mg/kg/injection, schedule: Q03DX004 (ip), vehicle: carboxymethylcellulose (CMC)
  survivor count: 3 of 10
dose: 500.0 mg/kg/injection, schedule: Q01DX001 (ip), vehicle: carboxymethylcellulose (CMC)
  survivor count: 3 of 10 and 4 of 10
dose: 1000.0 mg/kg/injection, schedule: Q01DX001 (ip), vehicle: carboxymethylcellulose (CMC)
  survivor count: 4 of 10

## C[C@]12CCC(=O)C=C1CC[C@@H]1[C@@H]2[C@@H](O)C[C@]2(C)C(=O)CC[C@@H]12
dose: 25.0 mg/kg/injection, schedule: Q01DX011 (sc), vehicle: steroid suspending solution
  T/C: 136 % of control

## CCCCCCOP(=O)(N1CC1C)N1CC1C (configuration not stated)
dose: 12.5 mg/kg/injection, schedule: Q01DX011 (ip), vehicle: saline
  survivor count: 5 of 10

## CCCCn1cnc2c(SC(C)C)nc(N)nc21
dose: 50.0 mg/kg/injection, schedule: Q01DX011 (ip), vehicle: methylcellulose (MC)
  survivor count: 2 of 10

## CCOC(=O)/C(C)=N\Nc1cc(Cl)nc(N)n1
dose: 56.0 mg/kg/injection, schedule: Q01DX011 (ip), vehicle: methylcellulose (MC)
  T/C: 149 % of control
[2]
  T/C: 137 % of control

## Nc1nc(N)c(N)c(Nc2ccc(Br)cc2)n1
dose: 62.0 mg/kg/injection, schedule: Q01DX011 (ip), vehicle: saline
  survivor count: 2 of 10

## Cn1ccc(N)nc1=O
[1]
  T/C: 127 % of control [8 of 10 alive]

## Cn1c(N)nc2n[nH]nc2c1=O
dose: 500.0 mg/kg/injection, schedule: Q01DX011 (ip), vehicle: carboxymethylcellulose (CMC)
  survivor count: 4 of 10

## OCCn1cnc2c(SCc3ccccc3)ncnc21
[2]
  survivor count: 6 of 10

## CCN(CC)CCOc1ccc(/C=N/Nc2nc3c(c(=O)n(C)c(=O)n3C)n2C)cc1
dose: 480.0 mg/kg/injection, schedule: Q01DX011 (ip), vehicle: carboxymethylcellulose (CMC)
  survivor count: 5 of 10

## Cc1cnc(SCc2ccc(Cl)cc2Cl)nc1SCc1ccc(Cl)cc1Cl
dose: 15.0 mg/kg/injection, schedule: Q01DX011 (ip), vehicle: methylcellulose (MC)
  T/C: 135 % of control

## NC(=O)CF
dose: 5.0 mg/kg/injection, schedule: Q01DX011 (ip), vehicle: other
  survivor count: 5 of 10

## CC(C)n1cc2c(N)ncnc2n1
dose: 50.0 mg/kg/injection, schedule: Q01DX011 (ip), vehicle: saline
  survivor count: 4 of 10

## O=S=Nc1ccccc1
dose: 350.0 mg/kg/injection, schedule: Q01DX011 (ip), vehicle: carboxymethylcellulose (CMC)
  survivor count: 4 of 10

## c1ccc(N2CCSCC2)cc1
[3]
  T/C: 49, 60 [7 of 10 alive], 72 % of control
  survivor count: 5 of 10
[4]
  T/C: 47, 49 [7 of 10 alive], 64 % of control [9 of 10 alive]
  survivor count: 3 of 10
dose: 27.0 mg/kg/injection, schedule: Q01DX011 (ip), vehicle: methylcellulose (MC)
  survivor count: 4 of 10

## O=C(Nc1ccc(C2=NCCN2)cc1)c1cccc(C(=O)Nc2ccc(C3=NCCN3)cc2)c1
dose: 37.5 mg/kg/injection, schedule: Q01DX011 (ip), vehicle: carboxymethylcellulose (CMC)
  survivor count: 5 of 10
dose: 75.0 mg/kg/injection, schedule: Q01DX011 (ip), vehicle: carboxymethylcellulose (CMC)
  survivor count: 0 of 10
[5]
  survivor count: 0 of 10

## NNc1nncc2ccccc12
[5]
  survivor count: 0 of 10
dose: 300.0 mg/kg/injection, schedule: Q01DX011 (ip), vehicle: carboxymethylcellulose (CMC)
  survivor count: 0 of 10

## CCNc1nncs1
dose: 113.8 mg/kg/injection, schedule: Q01DX011 (ip), vehicle: carboxymethylcellulose (CMC)
  survivor count: 5 of 10

## CC1([CH2][Hg][I])OCCOC1[CH2][Hg][I] (configuration not stated)
dose: 21.9 mg/kg/injection, schedule: Q01DX011 (ip), vehicle: saline
  survivor count: 6 of 10
dose: 22.0 mg/kg/injection, schedule: Q01DX011 (ip), vehicle: carboxymethylcellulose (CMC)
  survivor count: 6 of 10
dose: 43.8 mg/kg/injection, schedule: Q01DX011 (ip), vehicle: saline
  survivor count: 3 of 10
dose: 44.0 mg/kg/injection, schedule: Q01DX011 (ip), vehicle: carboxymethylcellulose (CMC)
  survivor count: 4 of 10
dose: 87.6 mg/kg/injection, schedule: Q01DX011 (ip), vehicle: saline
  survivor count: 0 of 10
dose: 88.0 mg/kg/injection, schedule: Q01DX011 (ip), vehicle: carboxymethylcellulose (CMC)
  survivor count: 0 of 10

## Cn1c(N)nc2nc[nH]c2c1=O
dose: 4.6 mg/kg/injection, schedule: Q01DX011 (ip), vehicle: methylcellulose (MC)
  survivor count: 6 of 10
dose: 37.5 mg/kg/injection, schedule: Q01DX011 (ip), vehicle: methylcellulose (MC)
  survivor count: 4 of 10

## CSc1nc(Cl)cc(NC(=O)CCl)n1
dose: 30.0 mg/kg/injection, schedule: Q01DX011 (ip), vehicle: carboxymethylcellulose (CMC)
  T/C: 140 % of control [8 of 10 alive]
dose: 120.0 mg/kg/injection, schedule: Q01DX011 (ip), vehicle: carboxymethylcellulose (CMC)
  survivor count: 0 of 10
dose: 240.0 mg/kg/injection, schedule: Q01DX011 (ip), vehicle: carboxymethylcellulose (CMC)
  survivor count: 0 of 10
